According to publication PMC11904993, “Humanized Candida and NanoBiT Assays Expedite Discovery of Bdf1 Bromodomain Inhibitors With Antifungal Potential” (Advanced Science, 2025):
No constants are given. Whether binding was seen depends on the method and setting. Binding seen in cells or lysates may run through a third protein. Some results given as binding are weak or reduced against the parent protein; the word gives no strength. For some assays here: Sequences can lack the tags named with a protein.

The chains behind the UniProt entries cited, without tags or fusion partners.
UniProt P34730: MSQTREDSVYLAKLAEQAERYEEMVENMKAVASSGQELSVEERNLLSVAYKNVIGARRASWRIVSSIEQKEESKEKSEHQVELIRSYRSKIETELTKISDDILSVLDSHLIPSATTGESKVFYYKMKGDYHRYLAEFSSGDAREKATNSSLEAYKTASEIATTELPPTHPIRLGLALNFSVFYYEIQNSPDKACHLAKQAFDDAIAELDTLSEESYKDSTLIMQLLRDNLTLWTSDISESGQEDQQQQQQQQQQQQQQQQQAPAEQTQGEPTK
UniProt P29311: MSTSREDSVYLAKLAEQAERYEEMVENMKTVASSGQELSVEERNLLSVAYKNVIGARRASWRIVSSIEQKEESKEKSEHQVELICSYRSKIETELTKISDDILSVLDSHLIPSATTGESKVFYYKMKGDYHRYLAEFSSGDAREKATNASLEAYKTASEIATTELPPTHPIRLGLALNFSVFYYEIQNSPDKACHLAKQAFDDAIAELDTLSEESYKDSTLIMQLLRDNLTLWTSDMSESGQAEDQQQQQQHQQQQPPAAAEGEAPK

T1: S. cerevisiae Swc4 (NanoBiT fusion) (S. cerevisiae) (UniProt P53201)
T1 sequence: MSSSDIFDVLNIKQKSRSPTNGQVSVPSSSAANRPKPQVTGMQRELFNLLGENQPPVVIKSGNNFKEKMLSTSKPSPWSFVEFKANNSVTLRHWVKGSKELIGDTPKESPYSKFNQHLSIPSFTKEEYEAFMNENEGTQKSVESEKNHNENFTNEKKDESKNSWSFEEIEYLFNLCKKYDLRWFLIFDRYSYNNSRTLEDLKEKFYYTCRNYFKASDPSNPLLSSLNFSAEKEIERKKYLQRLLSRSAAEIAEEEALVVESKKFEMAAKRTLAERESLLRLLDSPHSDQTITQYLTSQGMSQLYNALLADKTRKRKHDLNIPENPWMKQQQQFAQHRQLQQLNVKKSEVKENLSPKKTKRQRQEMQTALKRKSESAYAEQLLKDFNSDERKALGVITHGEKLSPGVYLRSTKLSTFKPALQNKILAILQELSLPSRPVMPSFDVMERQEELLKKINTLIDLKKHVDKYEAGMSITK

B1: S. cerevisiae Bdf1-SmBiT (protein, UniProt P35817 1-686)
chain: MTDITPVQNDVDVNGNNVNDDVSSNLKRPIDQGDPSNGLAEEENPANNQLHLKKARLDGDALTSSPAGLAENGIEGATLAANGENGYNATGSGAEDEQQGLKKEEGGQGTKQEDLDENSKQELPMEVPKEPAPAPPPEPDMNNLPQNPIPKHQQKHALLAIKAVKRLKDARPFLQPVDPVKLDIPFYFNYIKRPMDLSTIERKLNVGAYEVPEQITEDFNLMVNNSIKFNGPNAGISQMARNIQASFEKHMLNMPAKDAPPVIAKGRRSSAQEDAPIVIRRAQTHNGRPKRTIHPPKSKDIYPYESKKPKSKRLQQAMKFCQSVLKELMAKKHASYNYPFLEPVDPVSMNLPTYFDYVKEPMDLGTIAKKLNDWQYQTMEDFERDVRLVFKNCYTFNPDGTIVNMMGHRLEEVFNSKWADRPNLDDYDSDEDSRTQGDYDDYESEYSESDIDETIITNPAIQYLEEQLARMKVELQQLKKQELEKIRKERRLARGSKKRGKRSKGRSGSKNASSKGRRDKKNKLKTVVTYDMKRIITERINDLPTSKLERAIDIIKKSMPNISEDDEVELDLDTLDNHTILTLYNTFFRQYESSSGASNGLDGTSGVTRDASSLSPTSAGSRKRRSKALSQEEQSRQIEKIKNKLAILDSASPLSQNGSPGQIQSAAHNGFSSSSDDDVSSESEEE

Key:
[1] = target: S. cerevisiae Bmh2 (NanoBiT fusion) (S. cerevisiae) (UniProt P34730); experiment: split reporter; NanoBiT in live S. cerevisiae grown overnight at 30 °C in SC(MSG) with serial dilutions of 24c or I-BET726; luminescence normalised to the Bdf1/Swc4 and Bmh1/Bmh2 controls
[2] = target: T1, S. cerevisiae Swc4 (NanoBiT fusion) (S. cerevisiae); experiment: as above

| Molecule | binding [1] | binding [2] |
| --- | --- | --- |
| S. cerevisiae Bmh1 (NanoBiT fusion) (from UniProt P29311 1-267) | binds |  |
| B1 |  | binds |
